Results deposited as PubChem BioAssay AID602196 (INSERM, 2012).
The whole screen tested about 23,000 reagents; this is an unselected part. Over the whole deposit, 455 (2%) are marked active. 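Active includes both protection and sensitisation; some change values fall well beyond the stated -50 to +50 range.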 Unmarked entries are inactive. Not all columns of the deposit are shown. Not given: the amount of reagent.

Test: 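Genes whose knock-down alters cisplatin killing of lung cancer cells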
System: human A549 lung cancer cells
Reagent: siRNA pair against human genes
Duration: 48 h transfection before cisplatin; time from cisplatin to read-out not stated
Treatment: cisplatin at a dose killing half of control-siRNA cells; exact dose and duration not given
Detection: 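Cisplatin cell death as a shift from the 50% death seen with control siRNA; siRNAs toxic or growth-blocking alone scored 0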
Reading the numbers: two-siRNA summed score (-2 to +2): higher = both siRNAs protect from cisplatin killing; -2 means both sensitise
Call rule: 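Each siRNA scores 0 if harmful alone by LDH or WST-1, otherwise +1 if it reduces and -1 if it increases cisplatin killing; a gene is active when both siRNAs agree (sum +2 or -2)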
Calls: active = both siRNAs shift cisplatin killing the same way; inactive = no consistent shift, or siRNA harmful alone

Gene | two-siRNA summed score (-2 to +2)
BLK | 1
LCE2A | 1
LOC145788 | 0
DGCR8 | 0
BET1 | -1
LOC283257 | 1
ORAI2 | 0
CHIC2 | 0
BRWD3 | 0
APOL3 | 0
PPP2R3B | 0
PLXNB2 | 0
LOC129881 | 0
CDY1 | -1
UQCRQ | 1
UBL4A | -1
NWD1 | 1
LOC388943 | 0
PRDX5 | 0
SNX10 | 0
SNHG11 | 1
LOC442232 | 0
C19orf47 | 1
IER5 | 0
KRT74 | 0
ALDH9A1 | 1
AP3B1 | 0
UBE2D2 | 0
NT5DC1 | 0
ANKRD2 | 0
VSIG4 | 0
RTN2 | 0
IFITM3P7 | 1
LOC283157 | 1
SLC4A8 | 0
NEUROD4 | 0
LOC388532 | 1
LOC442708 | 1
OR5F1 | 0
SETDB2 | 1
NEDD8 | -2 (active)
OR8D2 | -1
IRS4 | 0
GALNT16 | 0
CEBPB | 0
CHEK2 | 1
HSDL1 | 0
TRIM55 | 0
GAST | 0
LOC643406 | 0
PYY2 | -1
SPCS1 | 0
STAMBPL1 | -1
LOC441434 | -1
LOC92196 | 0
RNF43 | 0
NUPR2 | 0

8 neighbouring records already listed:
Gene | two-siRNA summed score (-2 to +2)
CEBPB | 0
CHEK2 | 1
HSDL1 | 0
TRIM55 | 0
GAST | 0
LOC643406 | 0
PYY2 | -1
SPCS1 | 0
